No constants are given. Whether binding was seen depends on the method and setting. Binding seen in cells or lysates may run through a third protein. Binding can be weak; no strength is given. Tags and fused reporters may be left off the sequences shown.
Target: T1, 3×FLAG-LSH (wild type) (human) (UniProt Q9NRZ9)
T1 sequence: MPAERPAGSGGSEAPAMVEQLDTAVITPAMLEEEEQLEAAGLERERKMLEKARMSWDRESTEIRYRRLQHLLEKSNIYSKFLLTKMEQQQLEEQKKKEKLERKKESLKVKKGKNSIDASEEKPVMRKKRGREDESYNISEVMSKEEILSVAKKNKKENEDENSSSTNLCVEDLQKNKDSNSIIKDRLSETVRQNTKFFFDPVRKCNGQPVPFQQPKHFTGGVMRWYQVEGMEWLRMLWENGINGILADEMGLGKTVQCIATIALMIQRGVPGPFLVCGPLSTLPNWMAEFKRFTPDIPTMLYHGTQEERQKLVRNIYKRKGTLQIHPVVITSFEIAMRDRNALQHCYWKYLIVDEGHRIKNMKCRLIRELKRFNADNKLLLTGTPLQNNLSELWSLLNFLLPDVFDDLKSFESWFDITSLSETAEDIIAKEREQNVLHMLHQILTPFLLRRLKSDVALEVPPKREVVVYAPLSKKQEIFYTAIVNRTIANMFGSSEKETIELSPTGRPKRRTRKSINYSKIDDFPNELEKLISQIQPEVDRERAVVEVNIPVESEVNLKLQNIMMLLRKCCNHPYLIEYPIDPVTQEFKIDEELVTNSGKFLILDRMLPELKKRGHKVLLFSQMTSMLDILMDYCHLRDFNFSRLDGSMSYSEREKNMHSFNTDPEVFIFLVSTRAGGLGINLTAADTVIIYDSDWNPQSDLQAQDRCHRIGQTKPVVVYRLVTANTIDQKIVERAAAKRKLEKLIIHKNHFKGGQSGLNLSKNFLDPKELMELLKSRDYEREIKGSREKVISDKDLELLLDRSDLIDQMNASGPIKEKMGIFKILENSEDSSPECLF
Test: co-IP; Flag-IP from lysate of U2OS cells stably expressing 3×FLAG-LSH (WT or ICF4 mutant); IP lysis buffer 25 mM Tris-HCl pH 7.4, 150 mM NaCl, 1% NP-40, 1 mM EDTA, 5% glycerol; 4 °C overnight; Protein G magnetic beads; western blot

binding: binds
Substance: macroH2A1 (from UniProt O75367-1)
